# No constants are given. Whether binding was seen depends on the method and setting. Some results given as binding are weak or reduced against the parent protein; the word gives no strength.
# Amino acid sequences for entries named in this document (tags omitted). A change or cut given only in a name is not applied to a line headed by its entry.
# UniProt Q9NZC2: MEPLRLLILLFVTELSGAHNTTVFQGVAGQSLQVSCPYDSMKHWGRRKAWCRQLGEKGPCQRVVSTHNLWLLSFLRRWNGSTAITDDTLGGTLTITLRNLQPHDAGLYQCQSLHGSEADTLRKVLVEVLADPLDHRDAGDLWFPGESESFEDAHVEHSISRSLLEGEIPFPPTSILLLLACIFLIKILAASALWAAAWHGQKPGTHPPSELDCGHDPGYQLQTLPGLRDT
# Target: human TREM2 (human) (UniProt Q9NZC2)
# Test: Octet BLI competition
row,binding,Binder
1,binds,"4C5 (antibody, V domains shown) VH: EVQLVQSGAEVKKPGESLKISCKGSGHSFTNYWIAWVRQMPGKGLEWMGIIYPGDSDTRYSPSFQGQVTISADKSISTAYLQWSSLKASDTAVYFCARQRTFYYDSSGYFDYWGQGTLVTVSS VL: DIQMTQSPSSVSASVGDRVTITCRASQGISNWLAWYQQKPGKAPKLLIYAASSLQVGVPLRFSGSGSGTDFTLTISSLQPEDFATYYCQQADSFPRNFGQGTKLEIK"
2,binds,"6E7 (antibody, V domains shown) VH: EVQLVQSGAEVKKPGESLKISCKGSGYSFTSYWIAWVRQMPGKGLEWMGIIYPGDSDTRYSPSFQGQVTISADKSISTAYLQWSSLKASDTAMYFCARQRTFYYDSSDYFDYWGQGTLVTVSS VL: DIQMTQSPSSVSASVGDRVTITCRASQGISSWLAWYQQKPGKAPKLLIYAASSLQNGVPSRFSGSGSGTDFTLTISSLQPEDFATYFCQQADSFPRTFGQGTKLEIK"
3,binds,"26C10 (antibody, V domains shown) VH: EVQLVESGGALVQPGGSLRLSCAASGFTFSSFGMSWVRQAPGKGLEWVSYISSSSFTIYYADSVKGRFTISRDNAKNSFYLQMNSLRDEDTAVYFCVREGGITMVRGVSSYGMDVWGQGTTVTVSS VL: SFELTQPPSVSVSPGQTASITCSGDKLGDKYVCWYQQKPGQSPMLVIYQDTKRPSGIPERFSGSNSGNTATLTISGTQAMDEADYYCQAWDSSTVVFGGGTKLTVL"
4,binds,"5E3 (antibody, V domains shown) VH: QVQLVQSGAEVKKPGASVKVSCKASGYTFTGYYIHWVRQAPGLGLEWMGWINPYSGGTTSAQKFQGRVTMTRDTSISSAYMELSRLRSDDTAVYYCARDGGYLALYGTDVWGQGTTVTVSS VL: DIQMTQSPSSLSASVGDRVTITCRASQGISNYLAWFQQKPGKAPKSLIYAASSLQSGVPSKFSGSGSGTDFTLTISSLQPEDFATYYCQQYSTYPFTFGPGTKVDIK"
5,binds,"16B8 (antibody, V domains shown) VH: QVQLVQSGAEVKKPGASVKVSCKASGYTFTNYGISWVRQAPGQGLEWMGWISAYNGNTNYAQKLQGRVTMTTDTSTSTVYMELRSLRSDDTAVYYCARRGYSYGSFDYWGQGTLVTVSS VL: DIQMTQSPSSVSASVGDRVTVTCRASQDINSWLAWYQQKPGKAPKLLIYAASSLQTGVPSRFSGSGSGTDFTLTISSLQPEDFATYSCQQSNSFPITFGQGTRLEIK"
6,binds,"10E3 (antibody, V domains shown) VH: EVQLVQSGAEVKKPGESLMISCKGSGYSFTNYWIGWVRQMPGKGLEWMGIIYPGDSDTRYSPSFQGQVTISADKSISTAYLQWSSLKASDTAMYFCARRRQGIWGDALDIWGQGTLVTVSS VL: EIVMTQSPATLSVSPGERATLSCRASQSVSSNLAWFQQKPGQAPRLLIYGASTRATGIPARFSVSGSGTEFTLTISSLQSEDFAFYYCLQDNNWPPTFGPGTKVDIK"
7,binds,"13E7 (antibody, V domains shown) VH: EVQLVQSGAEVKKPGESLMISCKGSGYSFTSYWIGWVRQMPGKGLEWMGIIYPGDSDTRYSPSFQGQVTISADKSISTAYLQWSSLKASDTAMYFCARRRQGIWGDALDFWGQGTLVTVSS VL: EIVMTQSPATLSVSPGERATLSCRASQSVSSNLAWFQQKPGQAPRLLIYGASTRATGIPARFSVSGSGTEFTLTISSLQSEDFAVYYCLQDNNWPPTFGPGTKVDIK"
8,binds,"32E3 (antibody, V domains shown) VH: EVQLVQSGAEVKKPGESLKISCKGSGYSFTSYWIGWVRQMPGKGLEWMGIIYPGDSDTRYSPSFQGQVTISADKSISTAYLQWSTLKASDTAIYYCARHDIIPAAPGAFDIWGQGTMVTVSS VL: EFVLTQSPGTLSLSPGERATLSCRASQIISSNYLAWYQQKPGQAPRLLIYSASSRATGIPDRFSGSGSGTDFTLTISRLEPEDFAVYYCQQFDSSPITFGRGTRLDIK"
9,binds,"4G10 (antibody, V domains shown) VH: EVQLVQSGAEVKKPGESLKISCKGSGYSFPSYWIAWVRQMPGKGLEWMGIIYPGDSDTRYSPSFQGQVTISADKSISTAFLKWSSLKASDTAMYFCARQGIEVTGTGGLDVWGQGTTVTVSS VL: DIQMTQSPSSLSASVGDRVTITCRASQGIRNDLGWYQQKPGNAPKRLIYAASSLPSGVPSRFSGSGSGPEFTLTISSLQPEDFATYYCLQHNSYPWTFGQGTKVEIT"

# Source: patent US20250282866A1, “TREATMENT OF DISEASES RELATED TO ATP-BINDING CASSETTE TRANSPORTER 1 DYSFUNCTION USING TREM2 AGONISTS” (VIGIL NEUROSCIENCE, INC., priority 2020, published 2025)
